Data reported in patent US20210277137A1.
Results are given in words; binding and its absence hold for the method and conditions named. Some entries that bind do so weakly or less than the wild type.

The chains behind the UniProt entries cited, without tags or fusion partners. Where a name states a change or a piece, a line headed by the entry shows the natural chain unless it says otherwise. A line that says so, or that is headed by a name, gives the form on record, which may keep a tag or linker.
soluble cynomolgus (cyno) CD40 (Creative BioMart, cat #CD40-8824C) (G7PG38, form named): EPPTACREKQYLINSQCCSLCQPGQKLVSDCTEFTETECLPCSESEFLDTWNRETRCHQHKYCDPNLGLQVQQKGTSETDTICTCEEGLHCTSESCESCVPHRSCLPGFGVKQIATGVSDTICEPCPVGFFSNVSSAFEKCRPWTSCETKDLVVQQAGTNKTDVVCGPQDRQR

Target: soluble cynomolgus (cyno) CD40 (Creative BioMart, cat #CD40-8824C) (cynomolgus) (UniProt G7PG38)
Assay: SPR (BIAcore T200)

binding: binds
B1: Humanized muAb8 #1 (antibody, V domains shown)
VH: EVQLVQSGAEVKKPGSSVKVSCKASGYTFTDYYINWVRQAPGQGLEWIGWIFPGSGSVYCNEQFKGRATLTVDRSTSTAYMELSSLRSEDTAVYFCASSLGKFAYWGQGTLVTVSS
VL: DIQMTQSPSSLSASVGDRVTITCKASQSVVTAVAWYQQKPGKSPKLLIYSASNRYTGVPSRFSGSGSGTDFTLTISSLQPEDFATYFCQQYSSYPYTFGGGTKVEIK
